Record: PubChem BioAssay AID504744 (Drosophila RNAi Screening Center, 2011)
The screen tested about 23,000 reagents; this is a random part of those with a known target gene and a result. Over the whole deposit, 98 (0.43%) are marked active. 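Only hit calls are given; the phospho-dAkt signals, z-scores and hit direction were not deposited.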 Reagents against one gene are numbered here. Names joined by + are all predicted targets of the reagent.

Purpose: 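Identify dsRNAs that increase or decrease phospho-dAkt after insulin treatment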 (primary screen)
System: Drosophila Kc167 cells
Knock-down reagent: long dsRNA against Drosophila genes, 250 ng dsRNA per well of a 384-well plate
Time to read-out: 3 days of knock-down, then overnight serum-free starvation before stimulation
Treatment: bovine insulin at 387 nM for 10 minutes after 12 h without serum
Measurement: 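Per-well phospho-dAkt level from an in-cell fluorescent antibody stain, divided by a DNA-dye signal; log2 residuals turned into z-scores that take cell number into account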
Hit rule: 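Hit in the insulin screen when the two-replicate mean z-score is more extreme than plus or minus 2.5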

{"gene knocked down":"CG3739","reagent no.":1,"Outcome":"inactive"}
{"gene knocked down":"AANATL5","reagent no.":1,"Outcome":"inactive"}
{"gene knocked down":"CG12395","reagent no.":1,"Outcome":"inactive"}
{"gene knocked down":"CG13367","reagent no.":1,"Outcome":"inactive"}
{"gene knocked down":"CG13367","reagent no.":2,"Outcome":"inactive"}
{"gene knocked down":"CG14854","reagent no.":1,"Outcome":"inactive"}
{"gene knocked down":"CG14339","reagent no.":1,"Outcome":"inactive"}
{"gene knocked down":"CG8907","reagent no.":1,"Outcome":"inactive"}
{"gene knocked down":"mthl11","reagent no.":1,"Outcome":"inactive"}
{"gene knocked down":"pug","reagent no.":1,"Outcome":"inactive"}
{"gene knocked down":"CG33263","reagent no.":1,"Outcome":"inactive"}
{"gene knocked down":"Fib","reagent no.":1,"Outcome":"inactive"}
{"gene knocked down":"Lamtor1","reagent no.":1,"Outcome":"inactive"}
{"gene knocked down":"CG31077","reagent no.":1,"Outcome":"inactive"}
{"gene knocked down":"CG30259","reagent no.":1,"Outcome":"inactive"}
{"gene knocked down":"CG30259","reagent no.":2,"Outcome":"inactive"}
{"gene knocked down":"CG13071","reagent no.":1,"Outcome":"inactive"}
{"gene knocked down":"CG14313","reagent no.":1,"Outcome":"inactive"}
{"gene knocked down":"Pms2","reagent no.":1,"Outcome":"inactive"}
{"gene knocked down":"pio","reagent no.":1,"Outcome":"inactive"}
{"gene knocked down":"CG15130","reagent no.":1,"Outcome":"inactive"}
{"gene knocked down":"glob2","reagent no.":1,"Outcome":"inactive"}
{"gene knocked down":"eIF2Bdelta","reagent no.":1,"Outcome":"inactive"}
{"gene knocked down":"Ctr1B + Poxm","reagent no.":1,"Outcome":"inactive"}
{"gene knocked down":"tmod","reagent no.":1,"Outcome":"inactive"}
{"gene knocked down":"tmod","reagent no.":2,"Outcome":"inactive"}
{"gene knocked down":"tmod","reagent no.":3,"Outcome":"inactive"}
{"gene knocked down":"tmod","reagent no.":4,"Outcome":"inactive"}
{"gene knocked down":"lectin-21Ca","reagent no.":1,"Outcome":"inactive"}
{"gene knocked down":"CG9691","reagent no.":1,"Outcome":"inactive"}
{"gene knocked down":"Teh2","reagent no.":1,"Outcome":"inactive"}
{"gene knocked down":"CG4702","reagent no.":1,"Outcome":"inactive"}
{"gene knocked down":"CG9004","reagent no.":1,"Outcome":"inactive"}
{"gene knocked down":"hpRNA:CR18854","reagent no.":1,"Outcome":"inactive"}
{"gene knocked down":"CG15368","reagent no.":1,"Outcome":"inactive"}
{"gene knocked down":"CG33467","reagent no.":1,"Outcome":"inactive"}
{"gene knocked down":"CG33467","reagent no.":2,"Outcome":"inactive"}
{"gene knocked down":"egg","reagent no.":1,"Outcome":"inactive"}
{"gene knocked down":"egg","reagent no.":2,"Outcome":"inactive"}
{"gene knocked down":"CG4627","reagent no.":1,"Outcome":"inactive"}
{"gene knocked down":"nrv1","reagent no.":1,"Outcome":"active"}
{"gene knocked down":"stj","reagent no.":1,"Outcome":"inactive"}
{"gene knocked down":"MBD-like","reagent no.":1,"Outcome":"inactive"}
{"gene knocked down":"par-6","reagent no.":1,"Outcome":"inactive"}
{"gene knocked down":"Vps52","reagent no.":1,"Outcome":"inactive"}
{"gene knocked down":"pre-mod(mdg4)-AD + mod(mdg4) + pre-mod(mdg4)-X + 3 more","reagent no.":1,"Outcome":"inactive"}
{"gene knocked down":"bond","reagent no.":1,"Outcome":"inactive"}
{"gene knocked down":"CG13708","reagent no.":1,"Outcome":"inactive"}
{"gene knocked down":"CG14054","reagent no.":1,"Outcome":"inactive"}
{"gene knocked down":"AstA","reagent no.":1,"Outcome":"inactive"}
{"gene knocked down":"Vsx1","reagent no.":1,"Outcome":"inactive"}
{"gene knocked down":"Vsx1","reagent no.":2,"Outcome":"inactive"}
{"gene knocked down":"ZIPIC","reagent no.":1,"Outcome":"inactive"}
{"gene knocked down":"Mnt","reagent no.":1,"Outcome":"inactive"}
{"gene knocked down":"Mnt","reagent no.":2,"Outcome":"inactive"}
{"gene knocked down":"CG31988","reagent no.":1,"Outcome":"inactive"}
{"gene knocked down":"Dscam2","reagent no.":1,"Outcome":"inactive"}
{"gene knocked down":"Dscam2","reagent no.":2,"Outcome":"inactive"}
{"gene knocked down":"Dscam2","reagent no.":3,"Outcome":"inactive"}
{"gene knocked down":"Dscam2","reagent no.":4,"Outcome":"inactive"}
{"gene knocked down":"Dscam2","reagent no.":5,"Outcome":"inactive"}
{"gene knocked down":"Nt5a","reagent no.":1,"Outcome":"inactive"}
{"gene knocked down":"Hsp60C","reagent no.":1,"Outcome":"inactive"}
{"gene knocked down":"TwdlG","reagent no.":1,"Outcome":"inactive"}
{"gene knocked down":"Tbc1d22","reagent no.":1,"Outcome":"inactive"}
{"gene knocked down":"CG31954","reagent no.":1,"Outcome":"inactive"}
{"gene knocked down":"eRF3","reagent no.":1,"Outcome":"inactive"}
{"gene knocked down":"CG15564","reagent no.":1,"Outcome":"inactive"}
{"gene knocked down":"CG10663","reagent no.":1,"Outcome":"inactive"}
{"gene knocked down":"Eps-15","reagent no.":1,"Outcome":"inactive"}
{"gene knocked down":"Arl4","reagent no.":1,"Outcome":"inactive"}
{"gene knocked down":"Pglym87","reagent no.":1,"Outcome":"inactive"}
{"gene knocked down":"sotv + CG10731","reagent no.":1,"Outcome":"inactive"}
{"gene knocked down":"sotv + CG10731","reagent no.":2,"Outcome":"inactive"}

10 of these entries, set out differently.
gene knocked down | reagent no. | Outcome
tmod | 2 | inactive
tmod | 3 | inactive
tmod | 4 | inactive
lectin-21Ca | 1 | inactive
CG9691 | 1 | inactive
Teh2 | 1 | inactive
CG4702 | 1 | inactive
CG9004 | 1 | inactive
hpRNA:CR18854 | 1 | inactive
CG15368 | 1 | inactive
